{"source": "PubChem BioAssay AID686943, Drosophila RNAi Screening Center | 2013", "purpose": "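Fly genes whose loss alters ERK activation after insulin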 (primary screen)", "cell system": "Drosophila S2R+ haemocyte-like cells expressing YFP-tagged ERK (Rolled)", "knock-down reagent": "long dsRNA against Drosophila genes", "conditions": "insulin stimulation versus unstimulated cells; dose and duration not given", "measurement": "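Per-plate z-scores of phospho-ERK immunostaining normalised to YFP-tagged ERK, measured with and without insulin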", "reading the numbers": "replicate 1, z-score of dpERK with insulin: higher = more active ERK per ERK-YFP after insulin", "note": "In all, the deposit lists about 23,000 reagents; this is an unselected part of those with a known target gene and a result. 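Extra replicates exist only for a retested subset of genes; insulin dose and duration not given; both raised and lowered dpERK matter.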 The numbers tell different reagents against one gene apart. A plus sign joins genes that one reagent is predicted to hit. Not all columns of the deposit are shown. Not given: the amount of reagent, the time to read-out."}
The opening 2 records, ahead of the listing:
{"gene": "COX5BL", "dsRNA no.": 1, "replicate 1, z-score of dpERK with insulin": 0.45}
{"gene": "CG16815", "dsRNA no.": 1, "replicate 1, z-score of dpERK with insulin": 0.12}

The listing, repeating the preview:
{"gene": "COX5BL", "dsRNA no.": 1, "replicate 1, z-score of dpERK with insulin": 0.45}
{"gene": "CG16815", "dsRNA no.": 1, "replicate 1, z-score of dpERK with insulin": 0.12}
{"gene": "Rbpn-5", "dsRNA no.": 1, "replicate 1, z-score of dpERK with insulin": 0.84}
{"gene": "sncRNA:430e + His2A:CG33859 + His2A:CG33817 + 37 more", "dsRNA no.": 1, "replicate 1, z-score of dpERK with insulin": -4.34}
{"gene": "Mal-A1", "dsRNA no.": 1, "replicate 1, z-score of dpERK with insulin": 0.02}
{"gene": "Septin4", "dsRNA no.": 1, "replicate 1, z-score of dpERK with insulin": 0.48}
{"gene": "dpy", "dsRNA no.": 1, "replicate 1, z-score of dpERK with insulin": -0.31}
{"gene": "dpy", "dsRNA no.": 2, "replicate 1, z-score of dpERK with insulin": -0.54}
{"gene": "dpy", "dsRNA no.": 3, "replicate 1, z-score of dpERK with insulin": -0.32}
{"gene": "Cdc23", "dsRNA no.": 1, "replicate 1, z-score of dpERK with insulin": 2.71}
{"gene": "CG5880", "dsRNA no.": 1, "replicate 1, z-score of dpERK with insulin": -0.47}
{"gene": "CG9068", "dsRNA no.": 1, "replicate 1, z-score of dpERK with insulin": 0.34}
